For at least one compound, name, drawing or mass did not settle the structure. Non-standard residues stand in square brackets, D forms with d. Residues, ends and D or L forms follow the SMILES beside them. ξ: configuration not given here. *: point of attachment. Hexanoyl(4ξ-Me) = CCC(C)CCC(=O)*; dOrn = NCCC[C@@H](N)C(=O)O; Orn = NCCC[C@H](N)C(=O)O
Tests used:
Type in all cases: cell-based
[1] = test system: Escherichia coli ATCC 25922; settings: Table 2
Description: (§1) Minimum inhibitory concentration (MIC) was determined by broth microdilution according to CLSI guidelines. The test medium for most species was Mueller-Hinton broth (MHB). Bacteria were grown overnight to early stationary phase and adjusted in MHB to 5.0×10^5 colony-forming units per mL (c.f.u./mL) in the wells of 96-well microtiter plates, mixed with varying concentrations of test compounds and incubated at 37° C. for 24 h. […] MHBs containing 10% fetal bovine serum (Gibco), 21 mM MgCl, or 1.0 mg/ml LPS (lipopolysaccharides from Escherichia coli O55:B5, Sigma-Aldrich) were used to test their inhibitory effects.

[2] = test system: Methicillin-resistant Staphylococcus aureus ATCC 43300; settings: Table 2
Description: as §1

[3] = test system: Enterobacter cloacae NRRL-B-413; settings: Table 2
Description: as §1

Candida albicans = settings: Table 2
Description: as §1

Acinetobacter baumannii = settings: Table 2
Description: as §1

[4] = test system: Pseudomonas aeruginosa PAO1; settings: Table 2
Description: as §1

Bacillus subtilis 168 = settings: Table 2; B. subtilis 168
Description: as §1

[5] = test system: Saccharomyces cerevisiae VL-48; test: MIC, Saccharomyces cerevisiae; settings: Table 2
Description: as §1

CCC(C)CCC(=O)N[C@H](CC(N)=O)C(=O)N[C@H](Cc1ccc(O)cc1)C(=O)N[C@H](Cc1c[nH]c2ccccc12)C(=O)N[C@H](CCCN)C(=O)N[C@@H](CCCN)C(=O)NCC(=O)N[C@H](CCCN)C(=O)O (stereo partly drawn) [Compound 5] ({Hexanoyl(4ξ-Me)}-[dN][dY][dW][dOrn][Orn]G[dOrn]-OH)
ND (ND >64 μg/ml): MIC Ec [1] | MIC MRSA [2] | MIC En [3] | MIC Ca (Candida albicans) | MIC Ab (Acinetobacter baumannii) | MIC Pa [4] | MIC Bs (Bacillus subtilis 168) | MIC Sc [5]

CCC(C)CCC(=O)N[C@H](CC(N)=O)C(=O)N[C@H](Cc1ccc(O)cc1)C(=O)N[C@H](Cc1c[nH]c2ccccc12)C(=O)N[C@H](CCCN)C(=O)O (stereo partly drawn) [Compound 6] ({Hexanoyl(4ξ-Me)}-[dN][dY][dW][dOrn]-OH)
ND (ND >64 μg/ml): MIC Ec [1] | MIC MRSA [2] | MIC Pa [4] | MIC Bs (Bacillus subtilis 168)

Reference: US10738093B2, “Discovery of cationic nonribosomal peptides as Gram-negative antibiotics through global genome mining” (The Hong Kong University of Science and Technology, priority 2018, dated 2020)
